According to the supplement of paper PMC10849652:
Some of the results follow.

Sequences of proteins named here, by UniProt entry; tags and fusion partners are left off. A change or cut given only in a name is not applied to a line headed by its entry.
UniProt Q969E2: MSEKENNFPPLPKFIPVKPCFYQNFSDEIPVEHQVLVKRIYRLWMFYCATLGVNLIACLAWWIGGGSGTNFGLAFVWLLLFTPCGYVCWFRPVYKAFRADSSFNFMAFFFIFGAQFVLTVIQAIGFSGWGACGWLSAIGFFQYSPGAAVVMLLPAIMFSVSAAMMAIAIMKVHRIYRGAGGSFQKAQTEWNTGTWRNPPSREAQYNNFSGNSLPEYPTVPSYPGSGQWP
UniProt O14828: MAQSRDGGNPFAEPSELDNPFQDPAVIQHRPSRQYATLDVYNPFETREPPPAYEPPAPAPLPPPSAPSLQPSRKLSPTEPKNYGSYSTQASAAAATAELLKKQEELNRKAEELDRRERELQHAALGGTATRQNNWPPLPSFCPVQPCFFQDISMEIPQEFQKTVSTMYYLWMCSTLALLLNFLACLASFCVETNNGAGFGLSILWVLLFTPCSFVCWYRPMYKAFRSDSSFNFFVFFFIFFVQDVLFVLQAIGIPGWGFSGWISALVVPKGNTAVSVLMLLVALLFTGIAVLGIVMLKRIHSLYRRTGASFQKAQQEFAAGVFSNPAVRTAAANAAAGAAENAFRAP
UniProt P22307: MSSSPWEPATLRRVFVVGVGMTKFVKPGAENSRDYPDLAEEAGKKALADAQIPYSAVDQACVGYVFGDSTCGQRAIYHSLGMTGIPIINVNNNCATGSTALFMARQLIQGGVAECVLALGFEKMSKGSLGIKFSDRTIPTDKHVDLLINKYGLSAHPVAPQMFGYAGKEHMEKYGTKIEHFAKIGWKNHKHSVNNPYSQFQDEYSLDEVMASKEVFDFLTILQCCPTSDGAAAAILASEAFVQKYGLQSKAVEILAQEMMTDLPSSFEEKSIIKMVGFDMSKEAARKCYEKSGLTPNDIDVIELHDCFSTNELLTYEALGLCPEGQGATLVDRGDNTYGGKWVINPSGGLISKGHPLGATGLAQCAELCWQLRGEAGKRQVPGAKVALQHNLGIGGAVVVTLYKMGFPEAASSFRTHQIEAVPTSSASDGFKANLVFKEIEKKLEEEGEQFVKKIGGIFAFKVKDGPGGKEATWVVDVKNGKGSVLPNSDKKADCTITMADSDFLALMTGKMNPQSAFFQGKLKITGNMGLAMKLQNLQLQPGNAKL
UniProt Q9NQC3: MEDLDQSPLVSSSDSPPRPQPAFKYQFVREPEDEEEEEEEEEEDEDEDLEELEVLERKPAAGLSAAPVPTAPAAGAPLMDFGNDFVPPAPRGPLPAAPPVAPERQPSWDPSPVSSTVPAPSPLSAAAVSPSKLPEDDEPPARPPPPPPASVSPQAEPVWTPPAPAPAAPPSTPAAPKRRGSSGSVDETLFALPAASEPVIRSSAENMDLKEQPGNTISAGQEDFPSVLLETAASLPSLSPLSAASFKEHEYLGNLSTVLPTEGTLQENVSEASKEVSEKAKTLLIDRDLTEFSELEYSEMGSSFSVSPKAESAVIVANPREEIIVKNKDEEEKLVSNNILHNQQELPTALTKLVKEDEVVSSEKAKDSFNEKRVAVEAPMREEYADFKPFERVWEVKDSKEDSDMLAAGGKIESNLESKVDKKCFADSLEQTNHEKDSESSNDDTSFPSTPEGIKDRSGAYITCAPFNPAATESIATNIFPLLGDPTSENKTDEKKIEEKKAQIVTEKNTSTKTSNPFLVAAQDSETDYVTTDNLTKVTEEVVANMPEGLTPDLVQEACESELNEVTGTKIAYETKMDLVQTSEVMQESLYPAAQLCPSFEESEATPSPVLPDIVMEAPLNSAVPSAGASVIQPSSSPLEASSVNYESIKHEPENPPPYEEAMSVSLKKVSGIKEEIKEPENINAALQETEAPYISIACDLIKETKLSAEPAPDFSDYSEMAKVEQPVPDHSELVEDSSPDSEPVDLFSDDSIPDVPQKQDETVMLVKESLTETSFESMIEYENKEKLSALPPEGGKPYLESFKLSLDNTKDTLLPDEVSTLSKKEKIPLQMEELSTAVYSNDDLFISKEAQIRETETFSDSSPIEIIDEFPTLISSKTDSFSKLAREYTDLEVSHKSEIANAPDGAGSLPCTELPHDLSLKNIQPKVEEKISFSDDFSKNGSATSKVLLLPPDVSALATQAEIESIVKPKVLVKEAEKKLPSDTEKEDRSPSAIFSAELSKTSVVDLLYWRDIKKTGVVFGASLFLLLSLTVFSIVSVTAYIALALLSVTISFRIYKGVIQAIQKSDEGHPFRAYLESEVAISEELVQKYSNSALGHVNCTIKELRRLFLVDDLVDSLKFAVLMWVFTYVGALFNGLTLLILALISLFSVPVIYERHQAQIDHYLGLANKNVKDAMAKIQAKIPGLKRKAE
UniProt Q9H446: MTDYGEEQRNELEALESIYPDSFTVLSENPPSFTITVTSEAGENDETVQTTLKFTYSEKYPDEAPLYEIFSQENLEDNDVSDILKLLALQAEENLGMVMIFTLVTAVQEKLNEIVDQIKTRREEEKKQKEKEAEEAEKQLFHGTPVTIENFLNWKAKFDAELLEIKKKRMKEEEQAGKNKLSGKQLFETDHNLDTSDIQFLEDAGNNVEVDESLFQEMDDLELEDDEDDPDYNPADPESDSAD
UniProt Q8WU76: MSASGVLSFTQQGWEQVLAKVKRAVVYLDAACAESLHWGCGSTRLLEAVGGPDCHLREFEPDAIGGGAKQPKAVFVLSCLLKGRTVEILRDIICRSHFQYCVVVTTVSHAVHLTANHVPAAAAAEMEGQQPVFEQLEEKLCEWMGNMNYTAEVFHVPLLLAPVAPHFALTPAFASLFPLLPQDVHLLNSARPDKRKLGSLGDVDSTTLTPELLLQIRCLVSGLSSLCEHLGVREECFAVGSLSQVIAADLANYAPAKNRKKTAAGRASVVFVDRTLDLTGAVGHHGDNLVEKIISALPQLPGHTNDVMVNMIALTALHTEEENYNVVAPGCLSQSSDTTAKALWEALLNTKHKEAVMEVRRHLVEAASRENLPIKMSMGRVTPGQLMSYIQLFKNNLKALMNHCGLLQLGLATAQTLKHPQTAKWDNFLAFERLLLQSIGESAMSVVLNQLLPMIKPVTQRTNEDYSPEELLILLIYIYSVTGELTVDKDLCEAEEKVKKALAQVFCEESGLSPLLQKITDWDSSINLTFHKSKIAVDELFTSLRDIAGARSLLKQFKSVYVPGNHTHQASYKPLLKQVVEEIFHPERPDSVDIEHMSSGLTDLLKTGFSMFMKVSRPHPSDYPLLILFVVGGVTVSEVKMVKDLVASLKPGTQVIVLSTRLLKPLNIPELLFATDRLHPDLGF
UniProt P28702: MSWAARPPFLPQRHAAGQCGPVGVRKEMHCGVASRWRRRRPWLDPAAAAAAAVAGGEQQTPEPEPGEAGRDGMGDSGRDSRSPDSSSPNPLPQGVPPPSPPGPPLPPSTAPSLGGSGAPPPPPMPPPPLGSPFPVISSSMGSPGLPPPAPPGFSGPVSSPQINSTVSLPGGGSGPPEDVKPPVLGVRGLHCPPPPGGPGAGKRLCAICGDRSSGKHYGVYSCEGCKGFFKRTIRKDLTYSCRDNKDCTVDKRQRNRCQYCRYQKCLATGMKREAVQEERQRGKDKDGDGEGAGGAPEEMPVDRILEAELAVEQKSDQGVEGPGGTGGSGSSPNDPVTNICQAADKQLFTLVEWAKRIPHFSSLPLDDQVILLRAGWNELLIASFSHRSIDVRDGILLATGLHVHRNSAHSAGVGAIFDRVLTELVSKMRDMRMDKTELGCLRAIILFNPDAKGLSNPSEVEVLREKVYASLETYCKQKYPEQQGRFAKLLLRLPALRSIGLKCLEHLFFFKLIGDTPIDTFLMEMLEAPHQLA
UniProt O95486: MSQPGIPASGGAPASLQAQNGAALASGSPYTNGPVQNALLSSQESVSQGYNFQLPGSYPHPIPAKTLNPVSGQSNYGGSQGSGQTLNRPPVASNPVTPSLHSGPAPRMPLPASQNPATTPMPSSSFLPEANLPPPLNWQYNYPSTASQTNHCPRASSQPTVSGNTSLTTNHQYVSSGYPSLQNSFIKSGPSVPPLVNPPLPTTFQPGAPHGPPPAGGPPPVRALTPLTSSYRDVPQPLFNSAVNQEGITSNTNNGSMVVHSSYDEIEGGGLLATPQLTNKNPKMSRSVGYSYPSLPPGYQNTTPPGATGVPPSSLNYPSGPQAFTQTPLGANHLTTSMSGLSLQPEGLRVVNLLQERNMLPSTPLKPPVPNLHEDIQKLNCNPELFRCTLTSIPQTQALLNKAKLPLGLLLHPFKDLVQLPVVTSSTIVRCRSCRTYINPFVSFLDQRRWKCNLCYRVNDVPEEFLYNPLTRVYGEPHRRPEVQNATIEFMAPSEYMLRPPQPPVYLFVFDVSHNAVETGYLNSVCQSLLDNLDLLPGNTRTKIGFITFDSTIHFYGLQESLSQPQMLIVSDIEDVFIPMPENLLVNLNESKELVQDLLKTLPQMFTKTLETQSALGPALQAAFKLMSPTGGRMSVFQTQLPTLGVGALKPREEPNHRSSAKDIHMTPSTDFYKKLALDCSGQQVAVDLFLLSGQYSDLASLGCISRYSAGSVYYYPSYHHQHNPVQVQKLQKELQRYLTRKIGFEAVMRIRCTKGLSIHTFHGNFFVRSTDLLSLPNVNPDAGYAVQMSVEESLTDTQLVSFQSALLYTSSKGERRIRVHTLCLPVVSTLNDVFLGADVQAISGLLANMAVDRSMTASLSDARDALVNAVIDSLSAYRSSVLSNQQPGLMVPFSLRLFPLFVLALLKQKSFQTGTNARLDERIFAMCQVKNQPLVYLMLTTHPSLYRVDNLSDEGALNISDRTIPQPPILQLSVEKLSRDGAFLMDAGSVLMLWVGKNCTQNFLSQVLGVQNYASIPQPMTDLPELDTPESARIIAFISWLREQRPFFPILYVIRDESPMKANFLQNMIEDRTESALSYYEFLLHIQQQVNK
UniProt Q9HCN8: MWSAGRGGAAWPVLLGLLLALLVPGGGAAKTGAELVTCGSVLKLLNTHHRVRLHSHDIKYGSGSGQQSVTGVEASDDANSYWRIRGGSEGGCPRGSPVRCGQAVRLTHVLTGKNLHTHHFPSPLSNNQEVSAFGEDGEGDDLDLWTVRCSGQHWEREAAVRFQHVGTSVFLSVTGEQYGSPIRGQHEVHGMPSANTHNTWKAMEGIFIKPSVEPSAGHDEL

Columns and labels:
Test in all cases: log2 fold change, soluble protein after heating vs DMSO (PISA); higher = thermal stabilisation; K562 cells, 10 uM, 30 min; active = over 0.2 and 3.5 SD of the protein, either way, in both replicates (recomputed)
[1] = compound: C1=CC=C(C=C1)[C@H](COC2=CC3=C(C=C2)NC(=O)N3)NC(=O)C4=CC=CN(C4=O)CC5=CC(=C(C=C5)F)F
Method in brief: (§1)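 Soluble protein was defined as the supernatant after 21,000xg for 90 min. It came from K562 cells at 2×10^6 cells/mL given 10 μM compound for 30 min, heated in aliquots for 3 min across 48°C-58°C, pooled, and extracted in PBS with 0.5% NP-40 at 4°C, and was quantified by TMTpro 16plex LC-MS/MS with equalised channel sums. Thermal stability against control samples, from duplicates, is reported as log2 fold change.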

[2] = compound: CC1=C(SC2=C1C(=N[C@H](C3=NN=C(N32)C)CC(=O)N)C4=CC=C(C=C4)Cl)C
Method in brief: as §1

[3] = compound: CC1=C2C(=CC=C1)N=C(N(C2=O)C3=CC=CC=C3C)CN4C=NC5=C(N=CN=C54)N
Method in brief: as §1

[4] = compound: Cc1sc2c(c1C)C(c1ccc(Cl)cc1)=N[C@@H](CC(=O)OC(C)(C)C)c1nnc(C)n1-2
Method in brief: as §1

[5] = compound: c1ccc([C@@H]2C[C@H]2NC2CCNCC2)cc1
Method in brief: as §1

Measured: log2 fold change

SCAMP4 (UniProt Q969E2)
inactive: [1] 0.039 | [2] 0.004 | [3] 0.047 | [4] -0.043 | [5] 0.001

SCAMP3 (UniProt O14828)
inactive: [1] -0.005 | [2] -0.064 | [3] -0.038 | [4] 0.007 | [5] 0.067

SCP2 (UniProt P22307)
inactive: [1] 0.013 | [2] 0.043 | [3] 0.029 | [4] -0.016 | [5] 0.001

RTN4 (UniProt Q9NQC3)
inactive: [1] 0.006 | [2] 0.025 | [3] 0.007 | [4] -0.015 | [5] 0.007

RWDD1 (UniProt Q9H446)
inactive: [1] -0.037 | [2] 0.043 | [3] 0.032 | [4] -0.045 | [5] 0.018

Reprinted from the listing (2 entries):
RTN4 (UniProt Q9NQC3)
inactive: [1] 0.006 | [2] 0.025 | [3] 0.007 | [4] -0.015 | [5] 0.007

RWDD1 (UniProt Q9H446)
inactive: [1] -0.037 | [2] 0.043 | [3] 0.032 | [4] -0.045 | [5] 0.018

(listing goes on)

SCFD2 (UniProt Q8WU76)
inactive: [1] 0.045 | [2] -0.002 | [3] -0.028 | [4] 0.026 | [5] 0.056

RXRB isoform 3 (UniProt P28702)
inactive: [1] -0.025

SEC24A (UniProt O95486)
inactive: [1] -0.022 | [2] 0.02 | [3] 0.014 | [4] -0.027 | [5] -0.021

SDF2L1 (UniProt Q9HCN8)
inactive: [1] 0.066 | [2] -0.004 | [3] -0.016 | [4] 0.01 | [5] -0.047
